Assay results taken from PMC6224608.
No constants are given. Whether binding was seen depends on the method and setting. Binding can be weak; no strength is given. Sequences can lack the tags named with a protein. Blank lines part the entries; values can stand above or below the binder they belong to.

The chains behind the UniProt entries cited, without tags or fusion partners. Where a name states a change or a piece, a line headed by the entry shows the natural chain unless it says otherwise.
UniProt Q20849: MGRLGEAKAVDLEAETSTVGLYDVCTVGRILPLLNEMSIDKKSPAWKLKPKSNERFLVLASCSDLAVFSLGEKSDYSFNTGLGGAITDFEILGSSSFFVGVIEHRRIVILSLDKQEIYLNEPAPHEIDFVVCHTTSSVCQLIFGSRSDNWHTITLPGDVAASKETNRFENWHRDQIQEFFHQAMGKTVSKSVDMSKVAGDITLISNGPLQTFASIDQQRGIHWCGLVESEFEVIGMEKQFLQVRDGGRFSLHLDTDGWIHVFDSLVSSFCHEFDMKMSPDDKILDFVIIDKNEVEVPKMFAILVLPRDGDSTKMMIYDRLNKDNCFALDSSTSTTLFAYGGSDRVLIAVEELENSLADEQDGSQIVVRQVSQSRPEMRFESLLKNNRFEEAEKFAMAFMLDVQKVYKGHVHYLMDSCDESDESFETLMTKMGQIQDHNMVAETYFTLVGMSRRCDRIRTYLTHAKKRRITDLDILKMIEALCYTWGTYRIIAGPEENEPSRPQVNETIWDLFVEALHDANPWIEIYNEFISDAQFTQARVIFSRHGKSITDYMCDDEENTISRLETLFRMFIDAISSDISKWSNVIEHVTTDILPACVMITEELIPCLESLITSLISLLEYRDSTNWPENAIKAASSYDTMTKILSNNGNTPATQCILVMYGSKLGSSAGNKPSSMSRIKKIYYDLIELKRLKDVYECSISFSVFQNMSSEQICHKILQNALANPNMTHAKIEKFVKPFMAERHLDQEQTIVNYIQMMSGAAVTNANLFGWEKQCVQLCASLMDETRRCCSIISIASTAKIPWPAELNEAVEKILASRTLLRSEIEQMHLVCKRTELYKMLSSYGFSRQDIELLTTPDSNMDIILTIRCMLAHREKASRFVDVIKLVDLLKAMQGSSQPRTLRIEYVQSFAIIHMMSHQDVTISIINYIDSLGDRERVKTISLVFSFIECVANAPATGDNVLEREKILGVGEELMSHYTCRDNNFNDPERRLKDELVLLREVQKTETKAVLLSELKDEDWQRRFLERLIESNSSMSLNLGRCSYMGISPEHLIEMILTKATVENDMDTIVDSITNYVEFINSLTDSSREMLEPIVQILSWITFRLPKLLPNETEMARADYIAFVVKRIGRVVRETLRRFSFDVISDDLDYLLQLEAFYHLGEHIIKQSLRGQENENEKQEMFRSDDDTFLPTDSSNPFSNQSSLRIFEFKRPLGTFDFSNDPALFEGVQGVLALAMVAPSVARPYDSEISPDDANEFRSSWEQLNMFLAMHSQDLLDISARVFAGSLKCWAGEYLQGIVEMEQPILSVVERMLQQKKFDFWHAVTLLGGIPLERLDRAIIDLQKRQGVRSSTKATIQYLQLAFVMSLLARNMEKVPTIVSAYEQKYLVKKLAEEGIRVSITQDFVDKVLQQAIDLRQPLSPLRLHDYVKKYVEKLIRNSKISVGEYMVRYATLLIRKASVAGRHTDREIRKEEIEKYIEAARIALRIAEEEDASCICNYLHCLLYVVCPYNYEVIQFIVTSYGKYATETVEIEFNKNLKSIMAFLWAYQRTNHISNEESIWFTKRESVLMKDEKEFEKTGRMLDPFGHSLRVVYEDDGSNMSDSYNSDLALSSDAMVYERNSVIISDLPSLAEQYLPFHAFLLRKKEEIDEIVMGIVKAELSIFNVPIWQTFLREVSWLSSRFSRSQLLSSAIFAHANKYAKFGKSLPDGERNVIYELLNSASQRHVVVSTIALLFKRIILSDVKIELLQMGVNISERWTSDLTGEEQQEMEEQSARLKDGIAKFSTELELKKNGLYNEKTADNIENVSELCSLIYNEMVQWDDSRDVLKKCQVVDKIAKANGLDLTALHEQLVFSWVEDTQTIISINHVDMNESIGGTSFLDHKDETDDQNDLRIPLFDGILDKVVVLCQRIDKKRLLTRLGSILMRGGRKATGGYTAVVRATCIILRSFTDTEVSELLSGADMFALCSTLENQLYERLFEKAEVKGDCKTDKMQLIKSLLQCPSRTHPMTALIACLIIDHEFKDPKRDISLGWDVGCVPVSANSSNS

Legend:
Test in all cases: SEC; co-expressed in Sf21 cells; nickel affinity by the 6xHis on ROD-1, then Superose 6 10/300 in 25 mM HEPES, 150 mM NaCl, pH 7.5; Coomassie-stained gels of the fractions
[1] = molecular target: 6xHis::TEV::GFP::ROD-1 (residues 1-2177) (C. elegans) (UniProt Q20849)
[2] = molecular target: 6xHis::TEV::ROD-1(Δ1-372) (C. elegans)
[3] = molecular target: 6xHis::TEV::GFP::ROD-1(Δ1-372) (C. elegans)

binding [1]: binds
binding [2]: binds
binding [3]: binds
B1: StrepTagII::CZW-1 (protein, UniProt Q19642 1-778)
chain: MASSEGSYRDLEKKLKNGLTSISQDIVDKYGNLKVSLNVNATAKLIFDRLENLEDIAEMSTRNLSNLIDQTAKDSPEMLAEIKSQAQSCENLVEFLQSMKNVEEQLIIMRSKTTNRVEWGTAILACKDFLNDTNMLLEGIGRDGFDMSVPLKHFAAEYSVLSYNCRYQLSADYERAMNVPKLSKQKCGDRTNVSFSVFNVGSVEDQKMLNETLSAMNMIGQLPERLDAWKIVILNVFCEAIVASRDGVDVYIVDNPTPDQTRFLINQKPRGKKDKTIDVAKVLESMEVFFTKLHSVLHSHELLDATGKTFTSMIGSVIEEQLITMILKDVIAIAAPVTETADEDQEMFINLLQIGEVFVERMKELGFFSQKAKLLFTLDTDTIFVTRRCFAIVSKANKLINETYDKLVTVGVDDSAIKDIDLLAKAHTHAEHFAKEYGKDLGRLWSHNEDSQFPSFFAFQKCTVSESTINFVNLLRDNVKAAFACEDEGARAKLALTAENIVRLYVILTPRKHAELFSSIPNMAAIFYNNCHYISHCIMTMSFEASGDNQKTLLEPLLLDSVIRLRTVAADCMEKTLTRCRREMTAYLEDHSIFEHLPASYKTTKNTFAAAEEMSESADILVPREEPKIIKCLAACLLHIRLIAKNLREPLTEVVYCKVIGSLVSFLLDSLVRHVVTTSDFRENDANVMADVFKRLLEVVANIVAYKEQTKVTDFCAREYFRLNEIVFVLGNRMQDIEHRWFNAKGPMAEHLSRSEVVGLIKALFADSQHRSDLIARL

binding [1]: binds
B2: ZWL-1 (protein, UniProt Q95XP9 1-630)
chain: MPLTIEQLKQYNEKMAAKGEEDDAPAPVLLLDKYRVRVLPLTSIPFVMNHSSVSQLSLSSEDVLVVDFPSKGTGSGAGKAEKKMIFKKKIEPMEDSFEDKENVNEGGPLMTSFLTLEKLRKGMVGDVEIIGYECETSFFDANPIPLSDGVSLQRYIRLNCSEHFSPSISTLPVWISTTSSKFPSICWLAAGRTNRNVQFAAATRVLGHFNNENSERVVKQLNQACGTSQLNKYRAVYEEIRKIATENRPAPGEVTIDVRWSTKSTLVLLEHPDNAADCTIKIDLGWGDKRFFVDDEIFEQLFFVLNLADVLANPDNEVIFPMAPPANFDDLVQEMDALVEASSREDNVFVSNENFRGGDITDKVWNIVRKCNDVKQVTLLFRNFLQALAYGKIKSHAQERNKSHLASLIRISKSSEFKIPVLERLSTIDMMMEIGVESLRRRVIDIFSSQLLYPSDELEFILQTCENDLPAGNGAMNSAAISLLPITMALATANRIYELLNEKDHVILPDLTRRILQKYTASMIEKSRRGETETEYTFETTLPLLRMYKEGFMSKRPCIWTCENSNTVGANVQARVLTSLELQPSLEHINRLVNDSRPVWTATEEKPAMIKDLNADYTVVHTIFSYLPKM
